PubChem BioAssay AID1259299, Sanger Institute | 2017
In all, the deposit lists 794 reagents; shown is a part drawn at random. 9 of them (1.1%) were called active. 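Calls rest on knock-down alone; synergy scores play no part in calls, and no gene passed the synergy cut.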 Reagents against one gene are numbered here. No viability above 1 is reported: the scale is capped. Not given: the amount of reagent, the time to read-out.

Purpose: 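Essential genes and drug-synergistic partners among kinases and colorectal mutation genes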 (primary screen)
Cell system: human CAR1 colorectal cancer cells
Reagents: siRNA pool against human genes
Treatment: anchor drug BYL719 1 µM, cetuximab 5 µg/ml or trametinib 10 nM, or DMSO vehicle alone; exposure length not given
Detection: 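Mean replicate viability versus non-targeting controls, turned into robust z-scores, plus drug synergy scores for BYL719, cetuximab and trametinib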
Direction: viability robust z-score, knock-down alone and viability, knock-down alone (DMSO): higher = more viable cells; synergy score with BYL719 and synergy score with cetuximab and synergy score with trametinib: higher = stronger synergy with drug (synthetic lethal)
Call rule: 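Essential when viability robust z-score with knock-down alone (DMSO) is below -3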
Calls: active = essential (knock-down alone); inactive = no change

no.	target gene	reagent	viability robust z-score, knock-down alone	viability, knock-down alone (DMSO) (fraction of control)	synergy score with BYL719	synergy score with cetuximab	synergy score with trametinib	outcome
1	MPP2	1	0.789	1	-0.121	0.000201	0.031	inactive
2	ALDH18A1	1	-0.243	0.905	-0.163	-0.161	-0.0739	inactive
3	ACVR2A	1	0.789	1	-0.206	-0.073	-0.174	inactive
4	SRP72	1	-0.201	0.909	-0.126	-0.0579	-0.138	inactive
5	NME6	1	-1.65	0.775	-0.221	-0.129	-0.188	inactive
6	KSR1	1	-2.6	0.687	-0.0261	-0.0695	0.11	inactive
7	RIPK3	1	0.584	0.981	-0.101	-0.0906	-0.0857	inactive
8	PACSIN1	1	0.674	0.989	-0.178	-0.0347	-0.0545	inactive
9	RPS6KL1	1	-1.55	0.784	0	-0.131	-0.0502	inactive
10	DCLK2	1	0.789	1	-0.0311	0.0991	-0.084	inactive
11	AKT3	1	-0.648	0.867	-0.137	-0.0814	-0.0917	inactive
12	WNK4	1	-0.0741	0.92	-0.2	-0.0683	-0.118	inactive
13	FN1	1	0.0526	0.932	-0.0597	-0.136	-0.203	inactive
14	PMVK	1	-0.835	0.85	-0.173	-0.062	-0.0124	inactive
15	TGFBR2	1	0.789	1	-0.0749	-0.0227	-0.00905	inactive
16	ILK	1	0.153	0.941	-0.061	-0.112	-0.074	inactive
17	ILK	2	0.779	0.999	-0.0897	0.069	0.16	inactive
18	DYRK2	1	0.789	1	-0.108	-0.073	0.012	inactive
19	KDR	1	-1.56	0.783	-0.21	-0.187	-0.0514	inactive
20	CDK13	1	0.789	1	-0.158	-0.073	-0.221	inactive
21	CHKB	1	0.086	0.935	-0.212	-0.0756	-0.13	inactive
22	GRK3	1	0.789	1	-0.188	-0.073	-0.0557	inactive
23	DYRK1A	1	0.556	0.979	-0.113	0.0487	-0.198	inactive
24	ASPM	1	0.789	1	-0.108	-0.073	-0.13	inactive
25	PLK4	1	-0.992	0.835	-0.227	-0.0758	-0.0138	inactive
26	PRKACB	1	0.789	1	-0.118	-0.073	-0.0698	inactive
27	CEP290	1	0.789	1	-0.206	-0.073	-0.0417	inactive
28	PIKFYVE	1	0.699	0.992	-0.206	-0.0753	-0.128	inactive
29	ATRX	1	0.789	1	-0.206	-0.073	-0.068	inactive
30	VRK1	1	0.789	1	-0.159	0.0134	-0.0854	inactive
31	PIK3C2G	1	0.0925	0.936	-0.011	0.0501	-0.0905	inactive
32	MAP4K5	1	-1.89	0.753	-0.372	-0.226	-0.0505	inactive
33	GCK	1	-0.512	0.88	-0.122	0.0583	0.0254	inactive
34	MELK	1	0.789	1	-0.109	0.0326	-0.159	inactive

4 entries from above, set out differently:
target gene | reagent | viability robust z-score, knock-down alone | viability, knock-down alone (DMSO) (fraction of control) | synergy score with BYL719 | synergy score with cetuximab | synergy score with trametinib | outcome
CDK13 | 1 | 0.789 | 1 | -0.158 | -0.073 | -0.221 | inactive
CHKB | 1 | 0.086 | 0.935 | -0.212 | -0.0756 | -0.13 | inactive
GRK3 | 1 | 0.789 | 1 | -0.188 | -0.073 | -0.0557 | inactive
DYRK1A | 1 | 0.556 | 0.979 | -0.113 | 0.0487 | -0.198 | inactive
